PubChem BioAssay AID504774, Drosophila RNAi Screening Center, 2011

- Screen: 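Fly genes whose loss alters survival after alkylation damage to DNA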 (primary screen)
- System: Drosophila Kc167 cells
- Reagent: long dsRNA against Drosophila genes, about 0.25 µg dsRNA per well
- Time to read-out: about 6 days: 3 days knock-down, then 3 days with or without MMS
- Challenge: methyl methanesulphonate 0.004% (w/v) for 3 days after knock-down
- Measurement: 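ATP-dependent luminescence as a measure of live cells in MMS-exposed wells, quantile normalised within each plate, with replicate values also given as a mean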
- Scale: mean viability with MMS: higher = more surviving cells after MMS
The deposit covers about 23,000 reagents; below is a random part of those that have a named target and a result. 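Values are quantile-normalised luminescence on an arbitrary scale; higher means more cells surviving MMS.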 Further read-outs or replicates are left out here.

Target gene	DRSC id	mean viability with MMS
CG8136	DRSC16385	3.68e6
CG1663	DRSC06613	3.46e6
CG1663	DRSC22488	3.65e6
Mob2	DRSC09117	3.22e6
Mob2	DRSC09119	3.54e6
Mob2	DRSC09856	3.43e6
Mob2	DRSC23274	3.60e6
CG12708	DRSC19490	3.76e6
CG7685	DRSC16285	3.37e6
Trf4-1	DRSC17775	3.47e6

Records listed so far whose target name begins with C or c:
Target gene	DRSC id	mean viability with MMS
CG8136	DRSC16385	3.68e6
CG1663	DRSC06613	3.46e6
CG1663	DRSC22488	3.65e6
CG12708	DRSC19490	3.76e6
CG7685	DRSC16285	3.37e6

The listing continues.
Target gene	DRSC id	mean viability with MMS
Snap25	DRSC21228	3.58e6
Snap25	DRSC21236	3.56e6
CG32808	DRSC17689	3.79e6
fz	DRSC11348	3.54e6
Psc	DRSC07518	3.57e6
cnn	DRSC05422	3.59e6
cnn	DRSC07596	3.52e6
CG5556	DRSC00687	3.59e6
CG12679	DRSC20493	3.49e6
CG33012	DRSC06287	3.68e6
CG33012	DRSC06288	3.77e6
CG33704	DRSC03838	3.46e6
Vha100-5	DRSC02175	3.45e6
CG4459	DRSC15582	3.60e6
Txl	DRSC11310	3.35e6
PVRAP	DRSC09966	3.30e6
PVRAP	DRSC10577	3.58e6
chb	DRSC11469	3.46e6
